Source: paper PMC6312923 (Life Science Alliance, 2018)
Where two headings read alike, the source gives them in different places. No constants are given. Whether binding was seen depends on the method and setting. Binding seen in cells or lysates may run through a third protein. Some binding calls cover weakened binding; strength is not graded here.

By UniProt entry, the sequences of proteins in these tests, tags left out. Where a name states a change or a piece, a line headed by the entry shows the natural chain unless it says otherwise. Chains listed by the source or under a name are the forms on record and can include a tag or linker. Residues count along the entry.
UniProt Q9NZJ0: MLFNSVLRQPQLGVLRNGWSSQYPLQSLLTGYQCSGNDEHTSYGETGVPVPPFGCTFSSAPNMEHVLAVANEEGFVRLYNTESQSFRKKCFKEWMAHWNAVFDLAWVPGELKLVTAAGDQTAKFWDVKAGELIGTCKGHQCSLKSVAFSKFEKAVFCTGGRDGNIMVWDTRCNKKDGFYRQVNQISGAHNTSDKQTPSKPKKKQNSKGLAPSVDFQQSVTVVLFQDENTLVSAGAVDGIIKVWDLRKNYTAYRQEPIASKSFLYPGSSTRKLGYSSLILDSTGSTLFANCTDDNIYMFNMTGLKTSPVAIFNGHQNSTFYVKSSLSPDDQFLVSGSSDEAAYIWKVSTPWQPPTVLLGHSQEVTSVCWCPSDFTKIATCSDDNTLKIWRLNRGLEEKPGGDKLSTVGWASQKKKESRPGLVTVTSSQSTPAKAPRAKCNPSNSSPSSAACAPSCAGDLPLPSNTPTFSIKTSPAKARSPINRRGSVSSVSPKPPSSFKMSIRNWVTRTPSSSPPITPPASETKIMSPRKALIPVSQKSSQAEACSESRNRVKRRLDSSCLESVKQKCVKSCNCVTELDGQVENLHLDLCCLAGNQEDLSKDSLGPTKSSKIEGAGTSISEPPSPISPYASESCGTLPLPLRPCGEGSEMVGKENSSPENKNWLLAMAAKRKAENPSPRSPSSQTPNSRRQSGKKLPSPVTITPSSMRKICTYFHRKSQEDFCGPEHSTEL
HA-Cdt2^1–417-3FLAG: residues 1-417 of Q9NZJ0
3FLAG-3NLS-myc-Cdt2^390–730: residues 390-730 of Q9NZJ0
HA-Cdt2^PIP-3A-3FLAG (Q9NZJ0, form named): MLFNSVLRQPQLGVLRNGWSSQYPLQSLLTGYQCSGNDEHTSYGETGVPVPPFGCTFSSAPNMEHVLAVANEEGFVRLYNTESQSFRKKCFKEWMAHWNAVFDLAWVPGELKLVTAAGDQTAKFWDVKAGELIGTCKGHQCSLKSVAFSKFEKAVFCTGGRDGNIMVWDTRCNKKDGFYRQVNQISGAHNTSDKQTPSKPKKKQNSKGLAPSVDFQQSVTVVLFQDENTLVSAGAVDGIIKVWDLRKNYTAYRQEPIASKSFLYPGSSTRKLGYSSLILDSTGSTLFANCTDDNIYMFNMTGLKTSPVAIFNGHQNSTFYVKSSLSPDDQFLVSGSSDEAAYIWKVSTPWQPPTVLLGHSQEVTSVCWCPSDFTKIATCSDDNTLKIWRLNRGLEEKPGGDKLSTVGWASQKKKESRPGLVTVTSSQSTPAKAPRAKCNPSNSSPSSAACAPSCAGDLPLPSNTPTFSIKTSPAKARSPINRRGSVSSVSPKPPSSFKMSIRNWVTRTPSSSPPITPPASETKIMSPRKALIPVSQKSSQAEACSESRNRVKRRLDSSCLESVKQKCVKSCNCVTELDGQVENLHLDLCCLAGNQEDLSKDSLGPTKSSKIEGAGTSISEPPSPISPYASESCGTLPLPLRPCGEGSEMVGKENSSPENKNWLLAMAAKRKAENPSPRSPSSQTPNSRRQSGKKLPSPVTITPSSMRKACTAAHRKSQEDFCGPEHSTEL
UniProt Q13619: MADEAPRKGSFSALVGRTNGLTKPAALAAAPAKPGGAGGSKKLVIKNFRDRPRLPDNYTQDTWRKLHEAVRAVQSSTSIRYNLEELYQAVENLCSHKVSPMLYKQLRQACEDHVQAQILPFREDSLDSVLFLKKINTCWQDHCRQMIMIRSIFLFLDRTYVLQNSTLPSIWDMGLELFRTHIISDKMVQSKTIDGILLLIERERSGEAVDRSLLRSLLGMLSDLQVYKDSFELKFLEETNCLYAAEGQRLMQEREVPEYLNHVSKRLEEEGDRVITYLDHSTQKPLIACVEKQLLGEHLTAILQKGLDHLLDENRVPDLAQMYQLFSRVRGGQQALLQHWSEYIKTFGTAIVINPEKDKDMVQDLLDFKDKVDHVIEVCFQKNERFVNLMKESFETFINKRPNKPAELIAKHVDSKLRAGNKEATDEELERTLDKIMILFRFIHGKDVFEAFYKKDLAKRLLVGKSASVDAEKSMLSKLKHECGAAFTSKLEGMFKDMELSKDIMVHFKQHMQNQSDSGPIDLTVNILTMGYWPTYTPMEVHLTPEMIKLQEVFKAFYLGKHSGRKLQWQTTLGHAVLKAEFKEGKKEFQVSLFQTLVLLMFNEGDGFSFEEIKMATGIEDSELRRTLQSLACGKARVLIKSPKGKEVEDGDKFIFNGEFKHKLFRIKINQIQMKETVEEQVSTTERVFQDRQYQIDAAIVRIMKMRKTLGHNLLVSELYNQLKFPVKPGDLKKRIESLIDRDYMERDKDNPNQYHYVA
UniProt Q16531: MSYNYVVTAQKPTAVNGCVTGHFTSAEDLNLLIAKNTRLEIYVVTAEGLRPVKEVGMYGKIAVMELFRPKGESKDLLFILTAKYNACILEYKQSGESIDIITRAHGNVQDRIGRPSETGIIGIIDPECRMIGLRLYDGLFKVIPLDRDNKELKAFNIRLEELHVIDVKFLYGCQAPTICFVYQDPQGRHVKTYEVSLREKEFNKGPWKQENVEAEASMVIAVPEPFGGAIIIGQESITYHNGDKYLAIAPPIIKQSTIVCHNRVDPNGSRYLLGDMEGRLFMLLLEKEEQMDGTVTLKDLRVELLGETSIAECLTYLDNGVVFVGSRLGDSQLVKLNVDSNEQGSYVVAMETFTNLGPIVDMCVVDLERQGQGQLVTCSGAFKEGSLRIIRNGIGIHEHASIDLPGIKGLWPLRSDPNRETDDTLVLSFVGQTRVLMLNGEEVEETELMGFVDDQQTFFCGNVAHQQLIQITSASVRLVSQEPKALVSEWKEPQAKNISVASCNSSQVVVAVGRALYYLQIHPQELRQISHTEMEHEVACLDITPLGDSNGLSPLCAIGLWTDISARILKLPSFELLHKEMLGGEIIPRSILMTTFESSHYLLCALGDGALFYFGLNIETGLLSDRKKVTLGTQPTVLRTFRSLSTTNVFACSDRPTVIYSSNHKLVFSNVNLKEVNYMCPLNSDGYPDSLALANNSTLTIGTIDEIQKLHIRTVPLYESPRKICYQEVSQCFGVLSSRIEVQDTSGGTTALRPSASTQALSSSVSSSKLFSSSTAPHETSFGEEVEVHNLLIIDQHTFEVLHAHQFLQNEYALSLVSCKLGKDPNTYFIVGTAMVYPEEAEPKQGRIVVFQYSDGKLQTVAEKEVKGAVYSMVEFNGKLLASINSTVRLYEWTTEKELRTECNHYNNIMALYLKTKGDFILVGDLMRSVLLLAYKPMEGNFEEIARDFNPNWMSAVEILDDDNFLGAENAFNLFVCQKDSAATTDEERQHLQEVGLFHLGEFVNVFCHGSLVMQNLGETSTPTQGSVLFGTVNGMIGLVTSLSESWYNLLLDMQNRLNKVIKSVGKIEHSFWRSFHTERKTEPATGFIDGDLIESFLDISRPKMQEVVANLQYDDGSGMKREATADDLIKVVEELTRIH

Columns and labels:
[1] = biological target: Cdt2^PIP-3A-3FLAG, insect cells (human) (UniProt Q9NZJ0); experiment: co-IP; Sf21 cells co-infected with baculoviruses for Cdt2-3FLAG (WT or PIP-3A), DDB1, HA-Cul4 and His-myc-Rbx1; lysate in 0.5 M NaCl, 0.5% NP-40 buffer B, DEAE flowthrough, anti-FLAG resin, elution with 3FLAG peptide; Western blots for each protein; glycerol gradient
[2] = biological target: Cdt2-3FLAG (WT), insect cells (human) (UniProt Q9NZJ0); experiment: as above
[3] = biological target: HA-Cdt2^PIP-3A-3FLAG (human) (UniProt Q9NZJ0); experiment: co-IP; HEK293 / HEK293T cells transfected with FLAG-tagged Cdt2 constructs, with or without UV (50 J/m^2); fixed with 0.02% formaldehyde 10 min, lysed in 0.1% Triton X-100 mCSK buffer (10 mM Pipes pH 7.9, 100 mM NaCl), sonicated; anti-FLAG magnetic beads 1 h at 4°C; blots for PCNA, DDB1, Cul4A …
[4] = biological target: HA-Cdt2^WT(1–730)-3FLAG (human) (UniProt Q9NZJ0); experiment: as above
[5] = biological target: HA-Cdt2^1–417-3FLAG (human) (UniProt Q9NZJ0); experiment: as above
[6] = biological target: 3FLAG-3NLS-myc-Cdt2^390–730 (human) (UniProt Q9NZJ0); experiment: as above
[7] = biological target: HA-Cdt2^WT(1–730)-3FLAG (human) (UniProt Q9NZJ0); experiment: as above; remark: listed apart in the source

Molecule	binding [1]	binding [2]	binding [3]	binding [4]	further results
HA-Cul4A, insect cells (from UniProt Q13619 1-759)	binds	binds			
Cul4A, endogenous (from UniProt Q13619 1-759)			binds	binds	
DDB1, insect cells (from UniProt Q16531 1-1140)	binds	binds			
DDB1, endogenous (from UniProt Q16531 1-1140)			binds	binds	binding [5]: binds; binding [6]: no binding
Cdt1-3FLAG (natural protein, human, UniProt Q9H211 1-546, looked up, Cdt1, human; also called FLAG-tagged Cdt1; Cdt1-3FLAG (WT); source: Sf21 insect cells (baculovirus), purified (DEAE flowthrough, anti-FLAG resin, 3× FLAG peptide elution); not shown: 3FLAG, C-terminal, kept) MEQRRVTDFFARRRPGPPRIAPPKLACRTPSPARPALRAPASATSGSRKRARPPAAPGRDQARPPARRRLRLSVDEVSSPSTPEAPDIPACPSPGQKIKKSTPAAGQPPHLTSAQDQDTISELASCLQRARELGARVRALKASAQDAGESCTPEAEGRPEEPCGEKAPAYQRFHALAQPGLPGLVLPYKYQVLAEMFRSMDTIVGMLHNRSETPTFAKVQRGVQDMMRRRFEECNVGQIKTVYPASYRFRQERSVPTFKDGTRRSDYQLTIEPLLEQEADGAAPQLTASRLLQRRQIFSQKLVEHVKEHHKAFLASLSPAMVVPEDQLTRWHPRFNVDEVPDIEPAALPQPPATEKLTTAQEVLARARNLISPRMEKALSQLALRSAAPSSPGSPRPALPATPPATPPAASPSALKGVSQDLLERIRAKEAQKQLAQMTRCPEQEQRLQRLERLPELARVLRSVFVSERKPALSMEVACARMVGSCCTIMSPGEMEKHLLLLSELLPDWLSLHRIRTDTYVKLDKAADLAHITARLAHQTRAEEGL					binding [7]: binds
